The source of these data is patent US8318762B2, “Pyrazolospiroketone acetyl-CoA carboxylase inhibitors” (Pfizer Inc., priority 2008, dated 2012).

Amino acid sequences for entries named in this document (tags omitted).
UniProt O00763, whole entry: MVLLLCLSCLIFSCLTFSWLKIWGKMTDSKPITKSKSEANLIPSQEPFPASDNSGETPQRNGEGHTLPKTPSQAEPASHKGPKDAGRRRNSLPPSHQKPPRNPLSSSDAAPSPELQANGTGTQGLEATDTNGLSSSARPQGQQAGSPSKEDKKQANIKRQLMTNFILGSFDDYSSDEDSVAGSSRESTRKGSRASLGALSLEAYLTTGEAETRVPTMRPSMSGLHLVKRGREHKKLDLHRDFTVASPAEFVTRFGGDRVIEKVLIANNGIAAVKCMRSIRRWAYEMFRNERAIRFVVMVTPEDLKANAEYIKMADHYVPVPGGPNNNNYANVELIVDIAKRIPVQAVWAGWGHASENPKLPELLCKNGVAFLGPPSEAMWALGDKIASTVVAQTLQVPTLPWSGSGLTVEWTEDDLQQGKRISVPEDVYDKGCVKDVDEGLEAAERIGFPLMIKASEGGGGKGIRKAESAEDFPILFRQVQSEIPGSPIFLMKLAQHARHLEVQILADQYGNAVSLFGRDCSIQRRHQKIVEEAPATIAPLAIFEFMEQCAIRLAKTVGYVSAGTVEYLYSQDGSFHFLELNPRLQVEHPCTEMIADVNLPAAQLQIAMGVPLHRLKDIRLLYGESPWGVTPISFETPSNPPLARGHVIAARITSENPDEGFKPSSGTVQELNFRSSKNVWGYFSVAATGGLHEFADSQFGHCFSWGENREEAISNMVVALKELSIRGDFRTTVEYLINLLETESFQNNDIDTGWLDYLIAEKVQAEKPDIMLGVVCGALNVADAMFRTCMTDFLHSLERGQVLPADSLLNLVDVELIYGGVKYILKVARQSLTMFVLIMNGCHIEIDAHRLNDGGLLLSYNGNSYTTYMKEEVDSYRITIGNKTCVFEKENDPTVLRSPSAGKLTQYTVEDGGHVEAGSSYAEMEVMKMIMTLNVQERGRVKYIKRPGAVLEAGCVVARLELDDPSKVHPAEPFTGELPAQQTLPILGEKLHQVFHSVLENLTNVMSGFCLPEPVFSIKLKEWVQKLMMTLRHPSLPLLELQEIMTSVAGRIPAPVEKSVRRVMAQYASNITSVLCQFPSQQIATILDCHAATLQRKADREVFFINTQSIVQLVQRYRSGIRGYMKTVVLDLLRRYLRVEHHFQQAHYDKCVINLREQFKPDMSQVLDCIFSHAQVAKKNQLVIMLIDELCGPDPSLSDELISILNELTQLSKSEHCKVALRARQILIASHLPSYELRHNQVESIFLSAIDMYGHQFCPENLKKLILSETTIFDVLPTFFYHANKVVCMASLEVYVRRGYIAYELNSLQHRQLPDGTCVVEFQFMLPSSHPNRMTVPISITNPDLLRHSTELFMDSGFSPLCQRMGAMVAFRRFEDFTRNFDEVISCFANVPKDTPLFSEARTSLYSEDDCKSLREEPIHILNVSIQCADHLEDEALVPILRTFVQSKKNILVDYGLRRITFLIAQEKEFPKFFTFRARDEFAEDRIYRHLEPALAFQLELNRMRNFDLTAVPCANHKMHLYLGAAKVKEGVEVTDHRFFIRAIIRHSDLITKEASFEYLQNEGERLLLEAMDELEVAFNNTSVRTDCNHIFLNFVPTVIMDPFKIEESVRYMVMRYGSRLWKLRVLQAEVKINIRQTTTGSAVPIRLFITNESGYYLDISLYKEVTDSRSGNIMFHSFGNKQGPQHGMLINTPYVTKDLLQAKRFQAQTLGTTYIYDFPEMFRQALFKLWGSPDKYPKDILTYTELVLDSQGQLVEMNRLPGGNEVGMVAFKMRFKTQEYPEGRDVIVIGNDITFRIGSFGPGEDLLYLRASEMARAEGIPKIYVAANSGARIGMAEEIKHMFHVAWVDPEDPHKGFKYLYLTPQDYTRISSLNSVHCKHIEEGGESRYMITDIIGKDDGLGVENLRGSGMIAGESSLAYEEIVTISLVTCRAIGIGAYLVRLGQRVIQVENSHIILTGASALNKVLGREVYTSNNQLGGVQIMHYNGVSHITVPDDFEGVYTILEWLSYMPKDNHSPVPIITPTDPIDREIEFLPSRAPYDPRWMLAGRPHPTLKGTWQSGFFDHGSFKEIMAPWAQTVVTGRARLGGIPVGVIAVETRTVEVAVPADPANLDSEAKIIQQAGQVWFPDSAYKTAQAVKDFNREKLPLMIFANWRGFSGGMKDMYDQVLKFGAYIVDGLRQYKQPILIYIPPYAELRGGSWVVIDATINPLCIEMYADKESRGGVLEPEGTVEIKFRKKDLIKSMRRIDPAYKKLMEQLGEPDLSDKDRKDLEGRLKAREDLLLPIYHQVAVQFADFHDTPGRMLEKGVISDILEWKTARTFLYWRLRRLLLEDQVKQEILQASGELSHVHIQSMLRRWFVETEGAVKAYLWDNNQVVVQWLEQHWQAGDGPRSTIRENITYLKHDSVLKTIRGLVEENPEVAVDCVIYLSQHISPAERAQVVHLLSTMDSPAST

Structures are written as SMILES. Where “and” joins values, the source holds several entries; their conditions need not be identical. Identical values can stand only once. Structures were worked out from names or drawings and are uncertain.

The target in one experiment is recombinant human ACC2 (Homo sapiens, UniProt O00763). Kind of experiment: Measurement of human ACC2 inhibition (recombinant hACC2 Transcreener ADP detection FP assay). In kind it is biochemical. The note with it: read-out: rhACC2 IC50.
In the next experiment the target is rat liver ACC (Rattus norvegicus, UniProt P11497). The note with it: read-out: Rat liver ACC IC50; rat liver ACC radio enzymatic assay.

With `CCn1nc2c(c1C)OC1(CCN(C(=O)c3ccc4c(C)n[nH]c4c3)CC1)CC2=O` [2.025], the IC50 (as a rule, the midpoint of a concentration-inhibition curve) on recombinant human ACC2 was 0.161 µM; at rat liver ACC it was 0.131 µM.
For `CCn1cc2c(n1)C(=O)CC1(CCN(C(=O)c3ccc4c(C)n[nH]c4c3)CC1)O2` [2.024], the IC50 at recombinant human ACC2 came out at 0.113 µM; at rat liver ACC, 0.263 µM.
As for `CCC(C)n1nc2c(c1C)OC1(CCN(C(=O)c3ccc4[nH]nc(C)c4c3)CC1)CC2=O` (centres unmarked) [1.137], the IC50 at recombinant human ACC2 was 0.014 µM and 0.02 µM; on rat liver ACC it was 0.02 µM and 0.036 µM.
`CCn1nc2c(c1C)OC1(CCN(C(=O)c3ccc4cnn(C)c4c3)CC1)CC2=O`: the results for the IC50 on recombinant human ACC2 and on rat liver ACC were 0.229 µM and 0.236 µM, respectively.
